A short description of assay [1]: total CFTR protein upregulators, primary screen, cell-based, HeLa F508del-CFTR, immunofluorescence, viability (AID 1224863).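 As to fold increase: total CFTR protein by anti-CFTR immunofluorescence in fixed cells.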 The following applies: 24 h, measured here: primary viability 10 ug/mL, library dosed in µg/mL, stronger effect = higher value.
For assay [2], the target named is Cystic fibrosis transmembrane conductance regulator (Homo sapiens) (UniProt P13569). The description is as above. The following applies: 24 h, measured here: primary screen 10 ug/mL, library dosed in µg/mL, stronger effect = higher value.

By UniProt entry, the sequences of proteins in these tests, tags left out. Chains listed by the source or under a name are the forms on record and can include a tag or linker.
UniProt P13569, with tags, fused parts or gaps F508del: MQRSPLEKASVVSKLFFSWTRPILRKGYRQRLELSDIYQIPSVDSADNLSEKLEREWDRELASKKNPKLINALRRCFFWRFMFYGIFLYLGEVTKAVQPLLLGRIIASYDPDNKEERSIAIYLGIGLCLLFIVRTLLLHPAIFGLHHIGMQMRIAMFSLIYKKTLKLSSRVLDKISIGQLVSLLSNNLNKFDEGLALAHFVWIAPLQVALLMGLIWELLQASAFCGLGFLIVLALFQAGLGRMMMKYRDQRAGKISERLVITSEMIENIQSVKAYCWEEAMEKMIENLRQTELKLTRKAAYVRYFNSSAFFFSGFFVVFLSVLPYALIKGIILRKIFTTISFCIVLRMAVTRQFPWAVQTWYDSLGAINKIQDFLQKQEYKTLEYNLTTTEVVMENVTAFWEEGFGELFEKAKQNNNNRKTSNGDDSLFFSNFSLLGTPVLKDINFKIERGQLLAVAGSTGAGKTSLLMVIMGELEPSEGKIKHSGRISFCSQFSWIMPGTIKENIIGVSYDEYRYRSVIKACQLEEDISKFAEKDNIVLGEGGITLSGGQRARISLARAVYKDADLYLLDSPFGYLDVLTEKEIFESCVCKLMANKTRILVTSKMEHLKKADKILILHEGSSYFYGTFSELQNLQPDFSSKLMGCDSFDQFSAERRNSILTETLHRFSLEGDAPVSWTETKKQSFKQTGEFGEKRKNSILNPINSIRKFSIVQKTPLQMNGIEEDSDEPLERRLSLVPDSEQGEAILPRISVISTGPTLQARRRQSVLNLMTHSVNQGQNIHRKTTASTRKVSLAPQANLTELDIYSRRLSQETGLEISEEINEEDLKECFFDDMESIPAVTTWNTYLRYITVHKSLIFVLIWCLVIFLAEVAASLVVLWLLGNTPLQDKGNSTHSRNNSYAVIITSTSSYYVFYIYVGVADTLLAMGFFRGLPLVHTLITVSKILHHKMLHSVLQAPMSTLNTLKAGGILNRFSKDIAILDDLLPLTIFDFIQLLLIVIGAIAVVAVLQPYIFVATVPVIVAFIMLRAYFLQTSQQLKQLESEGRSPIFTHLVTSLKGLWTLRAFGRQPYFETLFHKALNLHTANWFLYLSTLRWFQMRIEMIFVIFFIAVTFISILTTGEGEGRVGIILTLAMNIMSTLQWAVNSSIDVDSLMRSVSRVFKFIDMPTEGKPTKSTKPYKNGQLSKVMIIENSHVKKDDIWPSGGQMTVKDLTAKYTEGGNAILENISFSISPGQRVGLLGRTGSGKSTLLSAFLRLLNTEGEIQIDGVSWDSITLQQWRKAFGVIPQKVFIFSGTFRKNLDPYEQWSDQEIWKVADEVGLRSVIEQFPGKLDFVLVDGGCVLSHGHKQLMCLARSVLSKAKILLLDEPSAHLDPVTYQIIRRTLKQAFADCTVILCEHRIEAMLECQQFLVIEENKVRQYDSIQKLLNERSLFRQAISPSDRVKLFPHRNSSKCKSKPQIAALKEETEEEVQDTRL

Molecules are shown by their SMILES. This is one part of the list.

As to `CC(C)(C)n1nc(C(=O)NCC2(N3CCOCC3)CCCCC2)cc1C1CC1`, in assay [1], the viability (as a rule, a read-out of living cells in per cent, often relative to untreated cells) worked out at 94%. Also, in assay [2], the fold increase was determined as 0.94.
`Cc1cc(C(=O)NCC2(N3CCOCC3)CCCCC2)c(C)o1` gave a viability in assay [1] of 98%. For the same compound, the fold increase in assay [2] was 1.

The values are drawn from PubChem BioAssay AID1224863 (Southern Research Institute, 2016).
